Data taken from patent US12428442B2, “Compounds, compositions and methods for synthesis” (WAVE LIFE SCIENCES LTD., priority 2017, dated 2025).
Where “and” joins values, the source holds several entries; their conditions need not be identical. Equal values may be shown once.

Assay: Use of chiral auxiliaries / phosphoramidite monomers in oligonucleotide synthesis (SOCICS or DPSE cycle), analysed by RP-HPLC/UPLC (Table 7)
Settings: dC dimer; cycle DPSE; activator 0.5M CMIMT

Row | SMILES | Dimer Conv. % | Dimer HPLC Area % dC | Dimer HPLC Area % dCC (PO) | Dimer HPLC Area % dCC (Rp) | Dimer HPLC Area % dCC (Sp) | Dimer Rp/Sp | Dimer d.r.
1 | C[Si](C[C@@H](O)[C@@H]1CCCCN1)(c1ccccc1)c1ccccc1 [WV-CA-012] | 68.6% | 13.80% | 0.25% | 57.75% | 28.20% | Rp | 67.19
2 | C[Si](C[C@@H](O)[C@@H]1CCCCN1)(C1CCCCC1)C1CCCCC1 [WV-CA-045] | 75.2% | 10.34% | 0.86% | 61.66% | 27.14% | Rp | 69.44
3 | C[Si](C[C@H](O)[C@@H]1CCCCN1)(C1CCCCC1)C1CCCCC1 [WV-CA-046] | 82.7% | 6.81% | 0.90% | 29.03% | 63.25% | Sp | 68.54
4 | CC(C)[Si](C[C@@H](O)[C@@H]1CCCN1)(C(C)C)C(C)C [WV-CA-050] | 97.9% and 95.8% | 0.74% and 1.50% | 6.30% and 3.27% | 1.56% and 1.55% | 91.40% and 93.57% | Sp | 98.32 and 98.37
5 | C[Si]1(C[C@@H](O)[C@@H]2CCCN2)CCCC1 [WV-CA-051] | 68.1% | 14.04% | 1.19% | 2.27% | 82.50% | Sp | 97.32
6 | C[Si]1(C[C@@H](O)[C@@H]2CCCN2)CCCCC1 [WV-CA-052] | 66.4% | 15.03% | 1.59% | 2.33% | 81.05% | Sp | 97.21

Same assay, conditions: dC dimer; cycle SOSICS; activator CMPT

Row | SMILES | Dimer Conv. % [%] | Dimer HPLC Area % dC [%] | Dimer HPLC Area % dCC (PO) [%] | Dimer HPLC Area % dCC (Rp) [%] | Dimer HPLC Area % dCC (Sp) [%] | Dimer Rp/Sp | Dimer d.r.
7 | C#C[C@@](C)(O)[C@@H]1CCCN1 [WV-CA-002, (R)-2-((S)-pyrrolidin-2-yl)but-3-yn-2-ol] | 22.2 | 25.44 | 3.21 | 0.40 | 10.75 | Sp | 96.41
8 | C=C[C@@H](O)[C@@H]1CCCN1 [WV-CA-003] | 87.8 | 6.53 | 3.33 | 1.81 | 87.49 | Sp | 97.97
9 | C[C@](O)(C1CCCCC1)[C@H]1CCCN1 [WV-CA-005-D] | 80.3 | 10.7919 | 0.5767 | 85.9478 | 0.441 | Rp | 99.49
10 | C[C@@](O)(C1CCCCC1)[C@@H]1CCCN1 [WV-CA-005-L] | 79.8 | 10.9756 | 0.5404 | 0.6921 | 84.352 | Sp | 99.19
11 | CN[C@@H](C1CCCCC1)[C@@](C)(O)c1ccccc1 [WV-CA-008-S, (1S, 2S)-1-cyclohexyl-1-(methylamino)-2-phenylpropan-2-ol] | 4.0 | 83.31 | 0.55 | 5.97 | 0.28 | Rp | 95.45
12 | C[C@](O)(c1ccccc1)[C@@H]1CCCCN1 [WV-CA-011-S] | 3.1 | 76.98 | 2.47 | 2.41 | 0.00 | Rp | 100.00
13 | CN[C@@H]1CCCC[C@]1(O)c1ccccc1 [WV-CA-024] | 92.3 | 3.95 | 1.02 | 4.69 | 88.00 | Sp | 94.94
14 | CN[C@@H]1CCCC[C@@]1(O)c1ccccc1 [WV-CA-025] | 32.8 | 50.3482 | 0.5542 | 5.1613 | 42.775 | Sp | 89.23
15 | CN[C@H]1CCCC[C@@]1(O)c1ccccc1 [WV-CA-026] | 92.7 | 3.7919 | 0.8648 | 90.8545 | 2.7404 | Rp | 97.07
16 | CN[C@H]1CCCC[C@]1(O)c1ccccc1 [WV-CA-027] | 37.6 | 42.968 | 0.636 | 47.0728 | 3.3719 | Rp | 93.32
17 | CN[C@H]1CCC[C@]1(O)c1ccccc1 [WV-CA-031] | 0.0 | 100.00 | 0.00 | 0.00 | 0.00 | Sp | –
18 | CN[C@H]1CCCC[C@@]1(O)C1CCCCC1 [WV-CA-047] | 61.2 | 23.43 | 0.83 | 7.32 | 64.80 | Sp | 89.86
19 | O[C@@H](C[C@@H]1CCCN1)c1ccccc1 [WV-CA-053] | 42.2 | 40.4914 | 0.6205 | 45.8627 | 11.777 | Rp | 79.57
20 | CC(C)[C@](C)(O)[C@@H]1CCCN1 [WV-CA-056-S] | 66.4 | 20.2741 | 0.2216 | 9.2876 | 69.456 | Sp | 88.21
21 | CC(C)[C@@](C)(O)[C@@H]1CCCN1 [WV-CA-056] | 84.8 | 8.05 | 0.66 | 3.49 | 84.70 | Sp | 96.04
22 | OC1([C@@H]2CCCN2)CC1 [WV-CA-057] | 8.3 | 9.9999 | 0.00 | 0.00 | 1.80 | Sp | 100.00
23 | OC1([C@H]2CCCN2)CCCC1 [WV-CA-059-R] | 86.8 | 7.15 | 1.73 | 90.17 | 0.95 | Rp | 98.96
24 | OC1([C@@H]2CCCN2)CCCC1 [WV-CA-059] | 89.5 | 5.5686 | 0.4474 | 1.017 | 92.058 | Sp | 98.91
25 | OC1([C@@H]2CCCN2)CCCCC1 [WV-CA-060] | 85.4 | 7.8884 | 0.3918 | 2.1565 | 88.619 | Sp | 97.62
26 | CN[C@H]1CCCC[C@]1(O)C1CCCCC1 [WV-CA-061] | 35.4 | 45.8889 | 0.5981 | 46.7151 | 2.2635 | Rp | 95.38
27 | OC1(C[C@@H]2CCCN2)CCCC1 [WV-CA-063-S] | 3.9 | 92.50 | 0.00 | 5.02 | 2.48 | Rp | 66.93
28 | OC1([C@@H]2CCCCN2)CCCC1 [WV-CA-064-S] | 11.4 | 55.52 | 0.93 | 12.36 | 0.87 | Rp | 93.44
29 | OC1([C@@H]2CCN2)CCCC1 [WV-CA-065-S] | 89.7 | 5.52 | 2.99 | 2.78 | 88.72 | Sp | 96.96
30 | CN[C@H]1CCC[C@H]1C1(O)CCCC1 [WV-CA-066-R] | 0.0 | 100.00 | 0.00 | 0.00 | 0.00 | Sp | –
31 | CCC(O)(CC)[C@@H]1CCCN1 [WV-CA-068-S] | 81.6 | 10.08 | 0.57 | 3.01 | 84.89 | Sp | 96.58

Same assay, conditions: no dimer cycle, activator or HPLC data printed

Row | SMILES | Dimer Rp/Sp
32 | CC[Si](CC)(CC)C[C@@H](O)[C@@H]1CCCN1 [WV-CA-067] | Sp
